From patent US12569459B2, “Compositions and methods for treating pulmonary edema or lung inflammation” (priority 2020, dated 2026)
For at least one compound, name, drawing or mass did not settle the structure.

Test system: RLE-6TN cells
Assay: RLE-6TN cell survival under hyperoxia, viable cells by trypan blue exclusion
Type: cell-based, rat
Details: 72 hours hyperoxia, 10^−6 M T3 and 100 nM wortmannin
Method: FIG. 7. […] The cells were cultured in DMEM/F12 with 10% FBS in 21% O2 and 5% CO2 overnight. […] The viable cells are counted immediately after 72-hour hyperoxia exposure. Cell viability is assessed with trypan blue. Viable cells under specific conditions are presented as a percentage of the cell number from hyperoxia alone. Data are mean±s.d. of four independent experiments with *=P<0.05; **=P<0.01.
FIG. 8. […] In both (A) and (B), the number of viable cells under specific conditions is presented as a percentage of the cell number related to hyperoxia alone in the same experiment. Data are mean±s.d. of four independent experiments with *=P<0.05; **=P<0.01.
FIG. 10. HO-1 Upregulation is required for T3-increased RLE-6TN cell survival in hyperoxia. […] The cells were then collected for Western Blot analysis. (B) The cells were incubated in 21% O2 and 5% CO2 for 72 hours in the present of HO-1 inhibitor Tin Protoporphyrin IX(10^−6 M) tinT3 (10^−6 M). […] Cell viability is assessed with trypan blue. The number of viable cells under specific conditions is presented as a percentage of the cell number related to hyperoxia alone. Data are mean±s.d. of three independent experiments with *=P<0.05; **=P<0.01.
FIG. 11. […] Cell viability is assessed with trypan blue. […]
At the end of the hyperoxia exposure period, the viable cells were counted by trypan blue dye exclusion.

COC[C@H]1OC(=O)c2coc3c2[C@@]1(C)C1=C(C3=O)[C@@H]2CCC(=O)[C@@]2(C)C[C@H]1OC(C)=O [wortmannin]
Effect on T3-induced cell survival in hyperoxia: blocked the T3-induced cell survival during hyperoxia and resulted in death of almost all the cells
